Source: the supplement of paper PMC4635364
Where a name gives a salt, the structure may show the parent alone. The list shows a part of the results. Repeats in this data set agree poorly, so a single value says little.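 ReNCell VM, a human fetal ventral-midbrain neural progenitor line, was differentiated without mitogens. Blinded raters scored images stained for doublecortin (early neurons) or tyrosine hydroxylase (dopaminergic neurons) against untreated wells (0 = no change). Scores were averaged across repeats and both raters, and compounds averaging 2 or more were selected as hits for retesting.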

What was measured:
ReNCell VM [1] = experiment: neuronal differentiation score (DCX+ cell fraction vs untreated, manual image score) (score (-3 to 3)); higher = more neuronal differentiation; conditions: 2 uM, 2 weeks
ReNCell VM [2] = experiment: dopaminergic neuron differentiation score (TH+ cell fraction vs untreated, manual image score) (score (0 to 3)); higher = more TH+ dopaminergic neuron differentiation; conditions: 2 uM, 4 weeks, BDNF 10 ng/ml + GDNF 10 ng/ml

O=[N+]([O-])c1cccc2cn[nH]c12 [7-Nitroindazole]
inactive: neuronal differentiation score (ReNCell VM [1]; library: LOPAC) 0 | neuronal differentiation score (ReNCell VM [1]; library: Tocriscreen) 0 | dopaminergic neuron differentiation score (ReNCell VM [2]; library: LOPAC) 0 | dopaminergic neuron differentiation score (ReNCell VM [2]; library: Tocriscreen) 0

O=C(O)c1cccnc1Nc1cccc(C(F)(F)F)c1 [Niflumic acid]
inactive: neuronal differentiation score (ReNCell VM [1]; library: LOPAC) 0 | neuronal differentiation score (ReNCell VM [1]; library: Prestwick) 0 | dopaminergic neuron differentiation score (ReNCell VM [2]; library: LOPAC) 0 | dopaminergic neuron differentiation score (ReNCell VM [2]; library: Prestwick) 0

CC(=O)Nc1nnc(S(N)(=O)=O)s1 [Acetazolamide]
inactive: neuronal differentiation score (ReNCell VM [1]; library: LOPAC) 0 | neuronal differentiation score (ReNCell VM [1]; library: Prestwick) 0 | dopaminergic neuron differentiation score (ReNCell VM [2]; library: LOPAC) 0 | dopaminergic neuron differentiation score (ReNCell VM [2]; library: Prestwick) 0

Three structures already listed, arranged by molecular weight, falling.
O=C(O)c1cccnc1Nc1cccc(C(F)(F)F)c1 [Niflumic acid]
inactive: neuronal differentiation score (ReNCell VM [1]; library: LOPAC) 0 | neuronal differentiation score (ReNCell VM [1]; library: Prestwick) 0 | dopaminergic neuron differentiation score (ReNCell VM [2]; library: LOPAC) 0 | dopaminergic neuron differentiation score (ReNCell VM [2]; library: Prestwick) 0

CC(=O)Nc1nnc(S(N)(=O)=O)s1 [Acetazolamide]
inactive: neuronal differentiation score (ReNCell VM [1]; library: LOPAC) 0 | neuronal differentiation score (ReNCell VM [1]; library: Prestwick) 0 | dopaminergic neuron differentiation score (ReNCell VM [2]; library: LOPAC) 0 | dopaminergic neuron differentiation score (ReNCell VM [2]; library: Prestwick) 0

O=[N+]([O-])c1cccc2cn[nH]c12 [7-Nitroindazole]
inactive: neuronal differentiation score (ReNCell VM [1]; library: LOPAC) 0 | neuronal differentiation score (ReNCell VM [1]; library: Tocriscreen) 0 | dopaminergic neuron differentiation score (ReNCell VM [2]; library: LOPAC) 0 | dopaminergic neuron differentiation score (ReNCell VM [2]; library: Tocriscreen) 0

Additional entries follow.

CCOC(=O)C(C)(C)Oc1ccc(Cl)cc1 [Clofibrate]
inactive: neuronal differentiation score (ReNCell VM [1]; library: LOPAC) 0 | neuronal differentiation score (ReNCell VM [1]; library: Prestwick) 0 | dopaminergic neuron differentiation score (ReNCell VM [2]; library: LOPAC) 0 | dopaminergic neuron differentiation score (ReNCell VM [2]; library: Prestwick) 0

CCCCC[C@H](O)/C=C/[C@H]1[C@H](O)CC(=O)[C@@H]1CCCCCCC(=O)O [Alprostadil]
inactive: neuronal differentiation score (ReNCell VM [1]; library: Prestwick) 0 | neuronal differentiation score (ReNCell VM [1]; library: Tocriscreen) 0 | dopaminergic neuron differentiation score (ReNCell VM [2]; library: Prestwick) 0 | dopaminergic neuron differentiation score (ReNCell VM [2]; library: Tocriscreen) 0

O=C(O)c1cccnc1C(=O)O [Quinolinic acid]
inactive: neuronal differentiation score (ReNCell VM [1]; library: LOPAC) 0 | neuronal differentiation score (ReNCell VM [1]; library: Tocriscreen) 0 | dopaminergic neuron differentiation score (ReNCell VM [2]; library: LOPAC) 0 | dopaminergic neuron differentiation score (ReNCell VM [2]; library: Tocriscreen) 0

CN(C)CCCC1(c2ccc(F)cc2)OCc2cc(C#N)ccc21 (stereo not given) [Citalopram hydrobromide]
inactive: neuronal differentiation score (ReNCell VM [1]; library: LOPAC) 0 | neuronal differentiation score (ReNCell VM [1]; library: Tocriscreen) 0 | dopaminergic neuron differentiation score (ReNCell VM [2]; library: LOPAC) 0 | dopaminergic neuron differentiation score (ReNCell VM [2]; library: Tocriscreen) 0

CCC(C)(C)C(=O)O[C@H]1C[C@@H](C)C=C2C=C[C@H](C)[C@H](CC[C@@H]3C[C@@H](O)CC(=O)O3)[C@H]21 [Simvastatin]
inactive: neuronal differentiation score (ReNCell VM [1]; library: Prestwick) 0 | neuronal differentiation score (ReNCell VM [1]; library: Tocriscreen) 0 | dopaminergic neuron differentiation score (ReNCell VM [2]; library: Prestwick) 0 | dopaminergic neuron differentiation score (ReNCell VM [2]; library: Tocriscreen) 0

COc1cccc(-c2cc(=O)c3ccccc3o2)c1N
inactive: neuronal differentiation score (ReNCell VM [1]; library: LOPAC) 0 | neuronal differentiation score (ReNCell VM [1]; library: Tocriscreen) -1 | dopaminergic neuron differentiation score (ReNCell VM [2]; library: LOPAC) 1 | dopaminergic neuron differentiation score (ReNCell VM [2]; library: Tocriscreen) 0

CCCNC(C)C(=O)Nc1ccccc1C (stereo not given) [Prilocaine hydrochloride]
inactive: neuronal differentiation score (ReNCell VM [1]; library: LOPAC) 0 | neuronal differentiation score (ReNCell VM [1]; library: Prestwick) 0 | dopaminergic neuron differentiation score (ReNCell VM [2]; library: LOPAC) 0 | dopaminergic neuron differentiation score (ReNCell VM [2]; library: Prestwick) 0

CC(=O)[C@H]1CC[C@H]2[C@@H]3CCC4=CC(=O)CC[C@]4(C)[C@H]3CC[C@]12C [Progesterone]
inactive: neuronal differentiation score (ReNCell VM [1]; library: LOPAC) 1 | neuronal differentiation score (ReNCell VM [1]; library: Prestwick) 0 | dopaminergic neuron differentiation score (ReNCell VM [2]; library: LOPAC) 0 | dopaminergic neuron differentiation score (ReNCell VM [2]; library: Prestwick) 0

CN(CCOc1ccc(C[C@H](Nc2ccccc2C(=O)c2ccccc2)C(=O)O)cc1)c1ccccn1
inactive: neuronal differentiation score (ReNCell VM [1]; library: LOPAC) 0 | neuronal differentiation score (ReNCell VM [1]; library: Tocriscreen) 0 | dopaminergic neuron differentiation score (ReNCell VM [2]; library: LOPAC) 0 | dopaminergic neuron differentiation score (ReNCell VM [2]; library: Tocriscreen) 0

CNCCC=C1c2ccccc2CCc2ccccc21 [Nortriptyline hydrochloride]
inactive: neuronal differentiation score (ReNCell VM [1]; library: LOPAC) 0 | neuronal differentiation score (ReNCell VM [1]; library: Prestwick) 0 | dopaminergic neuron differentiation score (ReNCell VM [2]; library: LOPAC) 0 | dopaminergic neuron differentiation score (ReNCell VM [2]; library: Prestwick) 0

CC(C[N+](C)(C)C)OC(N)=O (stereo not given) [Bethanechol chloride]
inactive: neuronal differentiation score (ReNCell VM [1]; library: LOPAC) 0 | neuronal differentiation score (ReNCell VM [1]; library: Prestwick) 0 | dopaminergic neuron differentiation score (ReNCell VM [2]; library: LOPAC) 0 | dopaminergic neuron differentiation score (ReNCell VM [2]; library: Prestwick) 0

CCC1(C)CC(=O)NC1=O (stereo not given) [Ethosuximide]
inactive: neuronal differentiation score (ReNCell VM [1]; library: LOPAC) 0 | neuronal differentiation score (ReNCell VM [1]; library: Prestwick) 0 | dopaminergic neuron differentiation score (ReNCell VM [2]; library: LOPAC) 0 | dopaminergic neuron differentiation score (ReNCell VM [2]; library: Prestwick) 0

C#CCN(C)Cc1ccccc1 [Pargyline hydrochloride]
inactive: neuronal differentiation score (ReNCell VM [1]; library: LOPAC) 0 | neuronal differentiation score (ReNCell VM [1]; library: Prestwick) 0 | dopaminergic neuron differentiation score (ReNCell VM [2]; library: LOPAC) 0 | dopaminergic neuron differentiation score (ReNCell VM [2]; library: Prestwick) 0

Oc1ccc(-c2nc(-c3ccc(F)cc3)c(-c3ccncc3)[nH]2)cc1
inactive: neuronal differentiation score (ReNCell VM [1]; library: LOPAC) 0 | neuronal differentiation score (ReNCell VM [1]; library: Tocriscreen) 0 | dopaminergic neuron differentiation score (ReNCell VM [2]; library: LOPAC) 0 | dopaminergic neuron differentiation score (ReNCell VM [2]; library: Tocriscreen) 0

CCOC(=O)c1cnc2c(cnn2CC)c1NN=C(C)C [Etazolate hydrochloride]
inactive: neuronal differentiation score (ReNCell VM [1]; library: LOPAC) 1 | neuronal differentiation score (ReNCell VM [1]; library: Tocriscreen) 0 | dopaminergic neuron differentiation score (ReNCell VM [2]; library: LOPAC) 0 | dopaminergic neuron differentiation score (ReNCell VM [2]; library: Tocriscreen) 0

CN1CC(=O)N=C1NC(=O)Nc1cccc(Cl)c1 [Fenobam]
inactive: neuronal differentiation score (ReNCell VM [1]; library: LOPAC) 0 | neuronal differentiation score (ReNCell VM [1]; library: Tocriscreen) 0 | dopaminergic neuron differentiation score (ReNCell VM [2]; library: LOPAC) 0 | dopaminergic neuron differentiation score (ReNCell VM [2]; library: Tocriscreen) 0

O=C(O)C1=CCCNC1 [Guvacine hydrochloride]
inactive: neuronal differentiation score (ReNCell VM [1]; library: LOPAC) 0 | neuronal differentiation score (ReNCell VM [1]; library: Tocriscreen) 0 | dopaminergic neuron differentiation score (ReNCell VM [2]; library: LOPAC) 0 | dopaminergic neuron differentiation score (ReNCell VM [2]; library: Tocriscreen) 0

COc1c(O[C@@H]2O[C@H](CO)[C@@H](O)[C@H](O)[C@H]2O)cc2c(c1OC)-c1ccc(SC)c(=O)cc1[C@@H](NC(C)=O)CC2 [Thiocolchicoside]
inactive: neuronal differentiation score (ReNCell VM [1]; library: Phytochemical) -1 | neuronal differentiation score (ReNCell VM [1]; library: Prestwick) 0 | dopaminergic neuron differentiation score (ReNCell VM [2]; library: Phytochemical) 0 | dopaminergic neuron differentiation score (ReNCell VM [2]; library: Prestwick) 0

CN1CCN(C2=Nc3ccccc3Oc3ccc(Cl)cc32)CC1 [Loxapine succinate]
inactive: neuronal differentiation score (ReNCell VM [1]; library: LOPAC) 1 | neuronal differentiation score (ReNCell VM [1]; library: Prestwick) 0 | dopaminergic neuron differentiation score (ReNCell VM [2]; library: LOPAC) 0 | dopaminergic neuron differentiation score (ReNCell VM [2]; library: Prestwick) 0

CC1COc2c(N3CCN(C)CC3)c(F)cc3c(=O)c(C(=O)O)cn1c23 (stereo not given) [Ofloxacin]
inactive: neuronal differentiation score (ReNCell VM [1]; library: LOPAC) 0 | neuronal differentiation score (ReNCell VM [1]; library: Prestwick) 0 | dopaminergic neuron differentiation score (ReNCell VM [2]; library: LOPAC) 0 | dopaminergic neuron differentiation score (ReNCell VM [2]; library: Prestwick) 0

CN(C)CCOC(c1ccccc1)c1ccccc1 [Diphenhydramine hydrochloride]
inactive: neuronal differentiation score (ReNCell VM [1]; library: LOPAC) 0 | neuronal differentiation score (ReNCell VM [1]; library: Prestwick) 0 | dopaminergic neuron differentiation score (ReNCell VM [2]; library: LOPAC) 0 | dopaminergic neuron differentiation score (ReNCell VM [2]; library: Prestwick) 0

Cn1nnc2c(C(N)=O)ncn2c1=O [Temozolomide]
inactive: neuronal differentiation score (ReNCell VM [1]; library: Prestwick) 0 | neuronal differentiation score (ReNCell VM [1]; library: Tocriscreen) 0 | dopaminergic neuron differentiation score (ReNCell VM [2]; library: Prestwick) 0 | dopaminergic neuron differentiation score (ReNCell VM [2]; library: Tocriscreen) 0
